Values of other authors in US20220096495A1, “TREATMENT AND PREVENTION OF INTESTINAL INFLAMMATORY DISEASES WITH A BILE ACID DERIVATIVE” (Intercept Pharmaceuticals, Inc., priority 2019, published 2022).
At least one compound was matched to its structure with a doubt left.

How the values were obtained:
patients with NASH = conditions: FLINT study; cited from earlier work
[1] = system: rodent model of intestinal IM; conditions: pretreatment; rodent model of intestinal IRI; cited from earlier work

Compound: CC[C@H]1[C@@H](O)[C@@H]2[C@H](CC[C@]3(C)[C@@H]([C@H](C)CCC(=O)O)CC[C@@H]23)[C@@]2(C)CC[C@@H](O)C[C@@H]12 [obeticholic acid]
- histological and immune features (patients with NASH): improves histological and immune features
- gut barrier function [1]: preserves the gut barrier function
- inflammation [1]: suppresses inflammation
- survival [1]: improved survival
